Reference: PubChem BioAssay AID588499 (NMMLSC, 2011)
About 610 (0.17%) of roughly 360,000 compounds were called active. The shares of active, inactive and inconclusive entries below differ from those in the screen. Cut-off read from the data, not from the text of the source: active = inhibition above about 30%; inconclusive = no clear call, values can overlap the other calls; inactive = below that.

What follows are compounds tested on Botulinum neurotoxin type A light chain protease (Clostridium botulinum A str. ATCC 3502) (assay: blockers of BoNT/A LC substrate cleavage – biochemical, flow cytometry, MLPCN library, primary screen (AID 588499; note: plate controls were buffer without enzyme for full effect and enzyme alone for no effect)). Conditions: multiplex microsphere protease substrate cleavage, at 10 µM, hits give high values.

SMILES | inhibition
COc1cccc(NC(=O)c2oc3ccccc3c2NC(=O)C(C)(C)C)c1 | active: 44.2%
CNc1ccccc1C(=O)OCC(=O)N(CCOC)c1c(N)n(CC(C)C)c(=O)[nH]c1=O | inconclusive: -1.6%
Cc1cccc(N(CC(=O)Nc2ccc(F)cc2)S(C)(=O)=O)c1 | inconclusive: -1.9%
O=C(CCCN1C(=O)NC2(CCCC2)C1=O)NCc1ccccc1 | inactive: -0.3%
CC1(C)C(O)=C(c2nc3ccccc3[nH]2)C(=N)N1c1ccccc1 | inconclusive: 22.4%
COc1ccc(C(=O)Nc2cccc(C)n2)cc1S(=O)(=O)N1CCCc2ccccc21 | inconclusive: 3.9%
CCOC(=O)CSc1nc(N)c(C#N)c(CC(C)C)c1C#N | inconclusive: 0.9%
COC(=O)C(C)Oc1ccc2c3c(c(=O)oc2c1)CCCCC3 (stereo unspecified) | inconclusive: -0.6%
O=C(c1ccc(C(F)(F)F)cc1)n1ccc(-c2cccs2)n1 | inconclusive: -43.7%
O=C(CSc1nc2ccccc2c(=O)n1CCC(=O)N1CCCCC1)NCc1ccccc1 | inconclusive: -1.5%
O=C(Cn1cncn1)NCc1cccc2ccccc12 | inconclusive: 0.8%
CNC(=O)C1=NCCCc2cc(OC)c(OC)cc21 | inconclusive: 3.4%
CC(=O)Nc1cccc(/C(C)=N/NC(=O)c2ccc3c(c2)OCO3)c1 | inactive: -0.1%
COC(=O)c1ccc(CSc2nc3scc(-c4cccs4)c3c(=O)[nH]2)o1 | inconclusive: 1.8%
C#CCN1C=CC(=O)[C@@H](OC(=O)Nc2ccccc2Br)[C@H]1c1ccccc1Br | inactive: -0.2%
Cn1ccc2c(N3CCCCCC3)cc3c(c21)C1CCC3C1 (stereo unspecified) | inactive: -0.8%
CC(C)/C=C1\CC/C(=C\c2ccc(N(C)C)cc2)C1=O | active: 34.2%
COc1ccc(N(C(C)C(=O)N(C)Cc2ccccc2)S(C)(=O)=O)cc1 (stereo unspecified) | inconclusive: -1.3%
Cc1ccc(S(=O)(=O)NCC(=O)N2CCCC2)cc1 | inconclusive: -3.1%
CCOc1ccc(C(=O)NCCc2cnc[nH]2)cc1 | inactive: 0.8%
Cc1cc(C)nc(SCC(=O)c2c(N)n(C)c(=O)n(C)c2=O)n1 | inconclusive: 0%
CC1(C)CC(=O)CC(C)(C)N1OC(=O)c1ccncc1 | inconclusive: -0.7%
CC(=O)Nc1cccc(C(=O)Nc2ccc(S(=O)(=O)N3CCCCC3)cc2)c1 | inactive: -0.7%
Cc1ccsc1/C=C1\SC(=S)N(CC2CCCO2)C1=O (stereo unspecified) | active: 35%
CC(=O)Nc1ccc(NC(=O)c2sc(-c3ccccc3)nc2C)cc1 | inactive: -2.9%
Cc1ccc(NC(=O)CCC(=O)NNC(=O)C(c2ccccc2)c2ccccc2)c(C)c1 | inactive: 0.7%

2 entries picked at random from the list so far:
SMILES | inhibition
Cc1ccc(S(=O)(=O)NCC(=O)N2CCCC2)cc1 | inconclusive: -3.1%
CC(=O)Nc1cccc(C(=O)Nc2ccc(S(=O)(=O)N3CCCCC3)cc2)c1 | inactive: -0.7%
